Laboratory results taken from the supplement of paper PMC12578635.
± gives the standard deviation of the averaged measurements. Some of the results follow. Most values come without repeats; read them as rough.

These molecules were tested on RAW 264.7 macrophages infected with S. aureus JE2-lux (assay: host macrophage viability (CellTiter-Fluor) relative to DMSO vehicle; higher = more viable host cells). Settings: 10 µM; treatment time 4 h; gentamicin 50 µg/ml.

Structure (SMILES)	host macrophage viability [%]
CC1=C(C(=O)Nc2ccccc2C)C(c2ccccc2)NC(=O)N1 (stereo not drawn)	99.5
O=C(CSc1nc(-c2ccccc2)cc(=O)[nH]1)NCc1ccc(F)cc1	126
CN1C(=O)c2cccc(NC(=O)c3cc(-c4cccs4)nc4ccccc34)c2C1=O	140
CC(C)(C)c1cc(Br)ccc1OCC(=O)Nc1nnc[nH]1	114
Cc1[nH]c2ccccc2c1CCNC(=O)c1ccc2nccnc2c1	110
Cc1cc(N2CCC(C(=O)Nc3cccc4ccccc34)CC2)n2ncnc2n1	129
CN1C(=O)C2ON(c3ccccc3)C(c3ccccc3)C2C1=O (stereo not drawn)	114
COc1ccc(Cn2c(C)nc3cc(NC(=O)Nc4ccc(Cl)cc4)c(C)nc32)cc1	110
N#Cc1c(/N=C/c2ccccc2O)oc(-c2ccco2)c1-c1ccco1	135 ± 7.7
COC(=O)C1=C(NC(=O)COc2ccc3ccccc3c2)CCS1	115
COc1ccc(OC)c2[nH]c(=O)c(CCNC(=O)Cc3cccc(C)c3)cc12	120
O=C(Nc1nc2c(s1)CSc1ccccc1-2)c1coc2ccccc2c1=O	101
CCC(C(=O)N1CCN(C)CC1)n1cnc2c(sc3ncccc32)c1=O (stereo not drawn)	102
O=c1c2ccccc2nc2c(-c3nc(-c4ccc5c(c4)OCO5)no3)cccn12	124
COc1ccc2c(c1)CCc1c(-c3nc(-c4ccc(Cl)cc4)no3)n[nH]c1-2	119
Cc1oc(-c2ccno2)cc1S(=O)(=O)N1CCCc2ccccc21	115
N#Cc1c(NC(=O)CC(=O)CSc2ncnc3sc4c(c23)CCC4)sc2c1CCCC2	127
O=S(=O)(NCc1ccc(-c2nn3cnnc3s2)cc1)c1ccccc1	132
COC(=O)c1ccc(NC(=O)CSc2nc3c([nH]2)c(=O)n(C)c(=O)n3C)cc1	98.4
CCc1ccc(NS(=O)(=O)c2[nH]nc(C)c2C(=O)n2nc(C)cc2C)cc1	121
O=C(Nn1cnc2c(cnn2-c2cccc(Cl)c2)c1=O)c1ccccc1C(F)(F)F	114
C=CCOc1ccccc1NC(=O)c1cnc(C(C)(C)C)nc1	114
Nc1c(C(=O)Nc2ccc(Oc3ccccc3)cc2)sc2nc3c(cc12)C(=O)CCC3	129
COc1ccc(C2C(C#N)=C(N)SC3C(=O)N(c4ccc(C)cc4)C(=O)C32)cc1 (stereo not drawn)	117
COc1cccc2cc(C(=O)C3=C(O)C(=O)N(CCCN(C)C)C3c3cccnc3)oc12 (stereo not drawn)	89.5
Cc1csc(SCc2cc(=O)c(OC(=O)c3cc4ccccc4o3)co2)n1	113

Random excerpt: 4 compounds from above, in no set order.
Structure (SMILES)	host macrophage viability [%]
O=c1c2ccccc2nc2c(-c3nc(-c4ccc5c(c4)OCO5)no3)cccn12	124
Nc1c(C(=O)Nc2ccc(Oc3ccccc3)cc2)sc2nc3c(cc12)C(=O)CCC3	129
CC1=C(C(=O)Nc2ccccc2C)C(c2ccccc2)NC(=O)N1 (stereo not drawn)	99.5
COC(=O)c1ccc(NC(=O)CSc2nc3c([nH]2)c(=O)n(C)c(=O)n3C)cc1	98.4

Additional structures.

Structure (SMILES)	host macrophage viability [%]
Cc1c(C)n2c(SCC(=O)N3CCc4ccccc43)nnc2[nH]c1=O	107
COCCCNc1oc(-c2ccc([N+](=O)[O-])cc2)nc1C#N	140
COc1ccc(CN(Cc2nc3ccccc3c(=O)[nH]2)C(=O)c2ccco2)cc1	117
O=C1c2oc3ccc(Cl)cc3c(=O)c2C(c2ccncc2)N1CCc1ccccc1 (stereo not drawn)	109
FC(F)(F)c1cccc(CSc2ncnc3ccccc23)c1	96 ± 4.2
CC(=O)c1ccc(NC(=O)CSc2nc(C)cc(C)c2C#N)cc1	113
COc1c(C(=O)NC2CCCOC2)cnc2cc(Cl)ccc12 (stereo not drawn)	113
O=C1OCCC1Sc1nc2ccccc2c(=O)[nH]1 (stereo not drawn)	118
CCOCCn1ccc2c(OCC(=O)NCCc3ccc(OC)c(OC)c3)cccc2c1=O	105
O=C(CC1NC(=O)NC1=O)Nc1ccc(F)cc1 (stereo not drawn)	119
CCOc1ccc(NC(=O)CCn2c(=S)[nH]c3ccccc3c2=O)cc1	123
O=C(NCC(c1ccco1)N1CCc2ccccc21)C(=O)Nc1ccc([N+](=O)[O-])cc1 (stereo not drawn)	123
CCn1cc(C(=O)N2CCC(n3c(C)nc4sc(C)c(C)c4c3=O)CC2)c(C)n1	118
C=CCOc1ccccc1NC(=O)c1cc2ncc(C(C)=O)c(C)n2n1	126
Cc1ccc(NS(=O)(=O)c2cc(-c3nc(C)cs3)cs2)c(Br)c1	103
COc1ccc(C2CC(=O)n3nc(-c4ccc(Cl)c(Cl)c4)nc3S2)cc1 (stereo not drawn)	118
Cc1nn(-c2nc3ccccc3s2)c2nc(C(C)(C)C)cc(C(F)(F)F)c12	114
O=C(O)c1cccnc1SCC(=O)N1CCN(c2ccccn2)CC1	130
CCOC(=O)c1s/c(=N\C(=O)CN2C(=O)c3ccccc3C2=O)n(C)c1C	114 ± 5.2
Cc1cccc(N2CCN(CCCNC(=O)c3cc(-c4ccccn4)nc4ccccc34)CC2C)c1 (stereo not drawn)	108
O=C(c1ccc(F)c(F)c1)N1CCN=C1SCc1cccnc1	107 ± 11
Cc1ccc(-c2cc3nc(-c4cccnc4)cc(C(F)(F)F)n3n2)cc1	129
CC1CCc2[nH]nc(-c3nc(-c4ccc(Cl)cc4)no3)c2C1 (stereo not drawn)	98.8
CCOC(=O)c1cc(C)nc2c1c(=O)n(CC(=O)NCc1ccc(C)cc1)c(=O)n2C	118
O=C(Nc1ccccc1-n1cccc1)c1cccc2nccnc12	115
CCN(CC)CCN1C(=O)C(O)=C(C(=O)c2cc3ccccc3o2)C1c1ccccn1 (stereo not drawn)	110

Structure (SMILES)	host macrophage viability [%]
Cc1ccc(C)c(S(=O)(=O)Nc2cc3c4c(c2)CCC(=O)N4CCC3)c1	111
O=C(CC(NCc1ccccn1)C(=O)O)Nc1cccc([N+](=O)[O-])c1 (stereo not drawn)	110
COc1cc2nc(NC(=O)c3ccco3)sc2cc1OC	110
Nc1c(-c2nc(-c3ccc4c(c3)OCO4)no2)nnn1-c1cccc(C(F)(F)F)c1	126
CCOc1ccc2nc(NC(=O)C3CCCN(c4ncnc5sc(CC)cc45)C3)sc2c1 (stereo not drawn)	117
c1ccc(Cc2nc3ccccc3c3nnc(SCc4ccccn4)n23)cc1	78.5
C#CCOc1cccc(C2CC(=O)Nc3c2c(C)nn3-c2nncc(-c3cccc(OC)c3)n2)c1 (stereo not drawn)	104
COC(=O)Cn1/c(=N/C(=O)c2ccc(F)cc2)sc2cc(S(N)(=O)=O)ccc21	125
Cc1ccc(S(=O)(=O)c2nccn3nc(-c4ccc(Cl)cc4)cc23)cc1	141
Cc1ccccc1NC(=O)CSc1cc[nH]c(=O)n1	117
COc1cccc(NC(=O)CCc2c(C)nn(-c3nc(C)c(C)s3)c2O)c1	115
CC1(C)CC(=O)c2sc(NC(=O)c3cc(-c4cccs4)nc4ccccc34)nc2C1	110
Cc1cc(C)c(S(=O)(=O)Nc2cnc(N3CCNCC3)c(C(=O)NC3CC3)c2)cc1C	119
COc1cc(OC)c(NC(=O)C2CCCN(c3nc(C)nc4oc(C)c(C)c34)C2)cc1Cl (stereo not drawn)	94.8
N#Cc1c(N)nc(SCC(=O)Nc2ccccc2)c(C#N)c1-c1ccccc1	106
COC(=O)c1ccccc1NS(=O)(=O)c1cccc2cccnc12	123
COc1ccc(NC(=O)Nc2nc(SCC(=O)C(C)(C)C)ns2)cc1	76
CCc1cccc(C)c1NC(=O)CSc1nnc2ccc(C(=O)Nc3cccc(C)c3)cn12	119
CCc1cc(-c2csc(S(=O)(=O)N3CC=C(c4ccccc4)CC3)c2)on1	93.8
Cc1ccc(-c2nc3sc(N4CCN(C(=O)c5cnccn5)CC4)nn3c2NC2CCCC2)cc1	104
COc1ccc(NC(=O)C2CCN(C(=O)Nc3cccc(Cl)c3)CC2)cc1OC	118
COc1ccc2[nH]cc(CCNC(=O)c3ccc4nnc(C)n4c3)c2c1	114
Cc1nc(N2CCCC2)ncc1C(=O)NC(c1ccccc1)c1cccnc1 (stereo not drawn)	104
CCCn1c(=O)c2cc(F)ccc2n2c(=S)[nH]nc12	120
CNc1n[nH]c(N)c1-c1nc(-c2ccc(OC)cc2)no1	94.6
Cc1ccc2nc(Nc3ccc(Cl)cc3)c(C=O)c(=O)n2c1	118

Structure (SMILES)	host macrophage viability [%]
COc1ccc(CC(=O)Nc2c3c(nn2-c2ccc(C)cc2)CSC3)cc1OC	103
CCOC(=O)c1ccc(N2C(=O)C3Sc4[nH]c(=O)sc4C(/C=C/c4ccccc4)C3C2=O)cc1 (stereo not drawn)	112
Cc1nc2cccc(NC(=O)c3cc(=O)c4cc(C)c(C)cc4o3)c2[nH]1	123
Cc1ccc(S(=O)(=O)NCc2ccc3[nH]c(C)cc3c2)cc1	124 ± 19
COCCn1ccc2nc(C)c(C(=O)NCc3ccc(Br)cc3)cc2c1=O	122
CCN(CC)C(=O)CSc1ccccc1[N+](=O)[O-]	102
O=C(CC1(O)C(=O)Nc2ccccc21)c1cccc(-n2cccc2)c1 (stereo not drawn)	111
O=C(NCC(c1ccc(Cl)cc1)N1CCCCC1)c1cc(-c2ccc3c(c2)OCCO3)on1 (stereo not drawn)	99.5
CCN(CC)c1cc(CNC(=O)Nc2cc(OC)cc(OC)c2)ccn1	109
CCN1CCN(C(=O)c2nn(-c3ccc(F)cc3)c3c(=O)n(C)cnc23)CC1	95.9
COc1ccc(C)cc1NC(=O)C1CCN(C(=O)Nc2ccccc2)CC1	112
N#C/C(=C/Nc1ccc(F)cc1[N+](=O)[O-])c1nc(-c2ccc(F)cc2)cs1	112 ± 8.1
Cc1cc(=O)n2nc(CN(C(=O)C(C)C)c3ccccc3)nc2[nH]1	91.4
C=CCNC(=O)C(=O)Nc1ccc2c(c1)N(S(=O)(=O)c1cccs1)CCC2	89.6
Cc1nn2c(SCC(=O)c3cccc([N+](=O)[O-])c3)nnc2[nH]c1=O	105
N#Cc1ccc(C(=O)Nc2cccc3c2C(=O)NC3=O)cc1	109
CCN(CC)C(=O)c1sc2nc3c(cc2c1N)C(=O)CC(C)(C)C3	117
CCNC(=O)CC1Sc2ccc(C(F)(F)F)cc2NC1=O (stereo not drawn)	136
CSc1nnc(C)c(=O)n1COC(=O)c1ccc(Cl)c([N+](=O)[O-])c1	103
Cc1ccc2c(c1)C(c1ccc(F)cc1)N(C(=O)c1cc3ccccc3oc1=O)CC(=O)N2 (stereo not drawn)	121
O=C1Nc2ccc(Br)cc2/C1=C1/SC(=S)N(NC(=O)c2ccncc2)C1=O	90.8
O=C(CNCc1cccnc1)Nc1ccc2c(c1)OCO2	128
COc1ccc(Br)cc1-c1nc(Cn2nc(C)c3c(C)onc3c2=O)c(C)o1	129
O=C(O)c1ccc(NS(=O)(=O)c2cc3c4c(cccc4c2)C(=O)NC3=O)cc1	117
COc1ccc2nc(-n3nc(C)c4c3NC(=O)CC4c3cc(F)ccc3F)sc2c1 (stereo not drawn)	118
